Earlier results in patent US20250345461A1, “METHOD FOR REPAIRING HAIR CYCLE-RELATED GENES AND METHOD FOR TREATING HAIR CYCLE-RELATED DISEASES USING MIR-520D-5P” (LIVIUS PTE. LTD., priority 2021, published 2025).

Conditions: Irritable bowel syndrome/pre-anesthesia treatment/bronchiolitis obstruction

For `C[N+]1(C)CCC(OC(=O)C(O)(c2ccccc2)C2CCCC2)C1` (stereo not shown) [Glycopyrrolate], the “Maximum effective blood concentration at the time of administration or concentration in an external preparation in known indications” value is listed as “Administration: 800 pg/mL”.
